Measurements taken from the supplement of paper PMC6078165.
The reference is the same well before dosing, and untreated signal decays as well.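 Fibroblast labels denote human fibroblasts, mainly primary ones from uterus (C12385, HUF), lung (H6013), bone (Hs27A), adrenal (HADF) and skin (WS1), plus mammary HMF and breast cancer-associated Hs343T. Cancer cells are basal-like or mesenchymal-like triple-negative breast cancer lines. A hit is a response shift exceeding 3x replicate standard deviation. The tissue of the other fibroblasts is not given here.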

Test system: HCC1143
Assay: relative JC-1 red fluorescence (viability) vs pre-drug, coculture with fibroblast (fraction); higher = more viable cancer cells
Experimental: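 JC-1 labelled TNBC cells cocultured 1:1 (1,500 cells each) with CellTrace Violet stained primary or stromal fibroblasts in 384-well plates in FluoroBrite medium, treated with one of 42 anticancer drugs at 0.1, 1, 10 or 100 uM. JC-1 red fluorescence (mitochondrial integrity in cancer cells only) was read by plate reader every 8 h for 72 h. Values are normalised to each well's pre-drug value. The stock of one drug was tenfold lower, so its dose labels may be too high.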

COc1cc([C@@H]2c3cc4c(cc3[C@@H](O[C@@H]3O[C@@H]5CO[C@@H](c6cccs6)O[C@H]5[C@H](O)[C@H]3O)[C@H]3COC(=O)[C@H]23)OCO4)cc(OC)c1O [Teniposide]
relative JC-1 red fluorescence
Conditions	8 h	16 h	24 h	32 h	40 h	48 h	56 h	64 h	72 h
0.1 µM, coculture fibroblast: C12385	0.8431	0.797	0.73	0.66	0.599	0.563	0.529	0.493	0.489
0.1 µM, coculture fibroblast: H6013	0.76	0.712	0.67	0.653	0.587	0.571	0.538	0.517	0.481
0.1 µM, coculture fibroblast: H6019	0.836	0.767	0.743	0.686	0.645	0.637	0.588	0.55	0.513
0.1 µM, coculture fibroblast: H6076	0.771	0.7708	0.7252	0.668	0.625	0.597	0.566	0.5453	0.548
0.1 µM, coculture fibroblast: H6231	0.801	0.785	0.752	0.704	0.673	0.647	0.609	0.574	0.56
0.1 µM, coculture fibroblast: HADF	0.727	0.683	0.651	0.661	0.57	0.548	0.52	0.497	0.463
0.1 µM, coculture fibroblast: HCFa	0.766	0.675	0.63	0.595	0.513	0.476	0.431	0.403	0.372
0.1 µM, coculture fibroblast: HCPF	0.781	0.735	0.71	0.701	0.645	0.635	0.609	0.588	0.588
0.1 µM, coculture fibroblast: HHSteC	0.8014	0.74634	0.712	0.6724	0.617	0.591	0.547	0.528	0.473
0.1 µM, coculture fibroblast: HMF	0.802	0.798	0.744	0.689	0.65	0.628	0.582	0.562	0.57
0.1 µM, coculture fibroblast: HPFa	0.869	0.809	0.7842	0.694	0.6449	0.618	0.55	0.508	0.47
0.1 µM, coculture fibroblast: HUF	0.8573	0.796	0.742	0.673	0.609	0.578	0.538	0.506	0.488
0.1 µM, coculture fibroblast: Hs5	0.862	0.896	0.849	0.804	0.75	0.713	0.68	0.645	0.632
0.1 µM, coculture fibroblast: Hs27A	0.6967	0.634	0.595	0.607	0.487	0.485	0.44	0.4204	0.3796
0.1 µM, coculture fibroblast: Hs343T	0.7899	0.798	0.753	0.702	0.6644	0.639	0.601	0.576	0.564
0.1 µM, coculture fibroblast: WS1	0.7982	0.7168	0.6514	0.567	0.511	0.46662	0.417	0.379	0.358
1 µM, coculture fibroblast: C12385	0.828	0.761	0.705	0.647	0.585	0.554	0.507	0.457	0.435
1 µM, coculture fibroblast: H6013	0.785	0.725	0.698	0.68	0.632	0.634	0.603	0.594	0.539
1 µM, coculture fibroblast: H6019	0.821	0.731	0.68	0.617	0.57	0.537	0.491	0.453	0.421
1 µM, coculture fibroblast: H6076	0.7992	0.775	0.7317	0.692	0.642	0.621	0.586	0.579	0.582
1 µM, coculture fibroblast: H6231	0.8085	0.779	0.718	0.65	0.629	0.594	0.555	0.515	0.509
1 µM, coculture fibroblast: HADF	0.782	0.732	0.699	0.693	0.6	0.578	0.537	0.511	0.473
1 µM, coculture fibroblast: HCFa	0.796	0.718	0.675	0.654	0.577	0.558	0.511	0.48	0.434
1 µM, coculture fibroblast: HCPF	0.81	0.805	0.773	0.694	0.701	0.682	0.655	0.623	0.608
1 µM, coculture fibroblast: HHSteC	0.837	0.789	0.756	0.717	0.668	0.65	0.622	0.603	0.546
1 µM, coculture fibroblast: HMF	0.804	0.8071	0.743	0.671	0.659	0.632	0.591	0.551	0.534
1 µM, coculture fibroblast: HPFa	0.877	0.796	0.782	0.691	0.646	0.617	0.555	0.521	0.488
1 µM, coculture fibroblast: HUF	0.857	0.777	0.733	0.66	0.616	0.583	0.536	0.5	0.47
1 µM, coculture fibroblast: Hs5	0.861	0.846	0.846	0.842	0.789	0.773	0.767	0.758	0.767
1 µM, coculture fibroblast: Hs27A	0.766	0.741	0.729	0.784	0.69	0.718	0.708	0.71	0.686
1 µM, coculture fibroblast: Hs343T	0.811	0.776	0.727	0.682	0.628	0.6038	0.565	0.54	0.527
1 µM, coculture fibroblast: WS1	0.8036	0.738	0.707	0.653	0.618	0.575	0.527	0.492	0.47
